Here are results for two molecules from publication PMC5843676.

The chains behind the UniProt entries cited, without tags or fusion partners. Where a name states a change or a piece, a line headed by the entry shows the natural chain unless it says otherwise.
UniProt P08514: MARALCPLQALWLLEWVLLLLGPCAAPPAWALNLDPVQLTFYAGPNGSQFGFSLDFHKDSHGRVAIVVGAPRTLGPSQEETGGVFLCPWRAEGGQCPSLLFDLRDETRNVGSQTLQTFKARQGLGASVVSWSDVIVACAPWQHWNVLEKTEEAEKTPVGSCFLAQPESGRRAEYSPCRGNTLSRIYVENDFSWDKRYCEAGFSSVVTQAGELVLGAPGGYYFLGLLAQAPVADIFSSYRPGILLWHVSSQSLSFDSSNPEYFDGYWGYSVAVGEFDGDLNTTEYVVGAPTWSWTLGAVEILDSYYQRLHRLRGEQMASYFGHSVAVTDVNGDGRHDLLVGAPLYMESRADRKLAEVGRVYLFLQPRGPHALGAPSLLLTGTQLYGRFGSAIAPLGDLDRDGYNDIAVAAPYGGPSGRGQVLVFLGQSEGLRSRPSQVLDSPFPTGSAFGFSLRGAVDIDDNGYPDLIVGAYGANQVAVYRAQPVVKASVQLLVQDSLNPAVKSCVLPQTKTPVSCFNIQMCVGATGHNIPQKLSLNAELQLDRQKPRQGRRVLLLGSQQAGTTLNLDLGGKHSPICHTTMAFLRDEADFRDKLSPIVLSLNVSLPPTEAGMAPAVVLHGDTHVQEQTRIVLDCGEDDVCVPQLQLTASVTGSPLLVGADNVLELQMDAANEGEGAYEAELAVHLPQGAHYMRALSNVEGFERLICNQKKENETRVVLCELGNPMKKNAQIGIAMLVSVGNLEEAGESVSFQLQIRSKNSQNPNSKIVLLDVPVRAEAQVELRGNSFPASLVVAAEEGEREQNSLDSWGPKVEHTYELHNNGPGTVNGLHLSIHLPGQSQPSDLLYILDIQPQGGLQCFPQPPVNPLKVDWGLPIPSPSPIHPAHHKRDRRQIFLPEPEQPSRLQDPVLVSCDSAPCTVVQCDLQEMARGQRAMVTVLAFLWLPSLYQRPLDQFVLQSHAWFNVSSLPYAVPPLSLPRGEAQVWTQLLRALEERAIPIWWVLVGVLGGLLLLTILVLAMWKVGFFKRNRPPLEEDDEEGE
UniProt P05106: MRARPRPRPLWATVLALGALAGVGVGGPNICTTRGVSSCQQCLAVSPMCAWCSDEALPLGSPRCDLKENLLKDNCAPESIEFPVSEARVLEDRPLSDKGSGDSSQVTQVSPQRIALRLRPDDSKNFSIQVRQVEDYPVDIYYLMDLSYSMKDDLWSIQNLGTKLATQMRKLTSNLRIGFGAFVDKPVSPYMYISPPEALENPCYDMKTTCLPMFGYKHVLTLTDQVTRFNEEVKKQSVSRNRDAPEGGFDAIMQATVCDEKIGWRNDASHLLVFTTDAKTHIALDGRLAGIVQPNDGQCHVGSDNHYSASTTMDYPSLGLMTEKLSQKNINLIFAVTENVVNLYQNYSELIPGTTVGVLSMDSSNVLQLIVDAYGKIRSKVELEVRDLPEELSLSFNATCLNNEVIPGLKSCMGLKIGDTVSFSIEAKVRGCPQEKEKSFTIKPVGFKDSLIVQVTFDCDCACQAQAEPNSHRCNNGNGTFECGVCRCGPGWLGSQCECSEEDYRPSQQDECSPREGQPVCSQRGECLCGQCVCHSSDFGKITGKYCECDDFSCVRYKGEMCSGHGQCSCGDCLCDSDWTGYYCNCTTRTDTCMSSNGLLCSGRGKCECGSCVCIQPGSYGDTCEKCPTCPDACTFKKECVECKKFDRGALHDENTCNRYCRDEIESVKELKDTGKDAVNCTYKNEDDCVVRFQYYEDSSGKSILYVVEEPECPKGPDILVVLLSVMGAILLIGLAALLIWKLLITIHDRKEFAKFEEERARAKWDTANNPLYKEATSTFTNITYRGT

Results are given in words; binding and its absence hold for the method and conditions named. Some entries that bind do so weakly or less than the wild type.

The assay deals with human αIIbβ3 integrin on CHO cells (CHO-αIIbβ3) (human) (UniProt P08514+P05106). Nature of the assay: flow cytometry on cells; CHO transfectants with or without 10 nM PMA, incubated 30-60 min with PE-sEng; specificity tested with a tenfold molar excess of unlabeled sEng; parental CHO as control; only the binder purified. A general note: Flow cytometry measures light scatter and fluorescence of single cells or particles in a stream.

B1: phycoerythrin-labeled soluble endoglin (PE-sEng) (domain or fragment, UniProt P17813 26-586)
chain: ETVHCDLQPVGPERGEVTYTTSQVSKGCVAQAPNAILEVHVLFLEFPTGPSQLELTLQASKQNGTWPREVLLVLSVNSSVFLHLQALGIPLHLAYNSSLVTFQEPPGVNTTELPSFPKTQILEWAAERGPITSAAELNDPQSILLRLGQAQGSLSFCMLEASQDMGRTLEWRPRTPALVRGCHLEGVAGHKEAHILRVLPGHSAGPRTVTVKVELSCAPGDLDAVLILQGPPYVSWLIDANHNMQIWTTGEYSFKIFPEKNIRGFKLPDTPQGLLGEARMLNASIVASFVELPLASIVSLHASSCGGRLQTSPAPIQTTPPKDTCSPELLMSLIQTKCADDAMTLVLKKELVAHLKCTITGLTFWDPSCEAEDRGDKFVLRSAYSSCGMQVSASMISNEAVVNILSSSSPQRKKVHCLNMDSLSFQLGLYLSPHFLQASNTIEPGQQSFVQVRVSPSVSEFLLQLDSCHLDLGPEGGTVELIQGRAAKGNCVSLLSPSPEGDPRFSFLLHFYTVPIPKTGTLSCTVALRPKTGSQDQEVHRTVFMRLNIISPDLSGCTSKG
modifications: phycoerythrin label (site not stated)
For the molecule B1, the binding result is on record as “binds”.

B2: soluble endoglin (sEng; extracellular domain Glu26-Gly586) (domain or fragment, UniProt P17813 26-586)
chain: B1 chain
Take B2: the binding entry is “binds”.
